Experimental data taken from paper PMC2788698.

Biological target: T1, HA-tagged STN-1 (syntrophin) (C. elegans) (UniProt Q93646)
T1 sequence: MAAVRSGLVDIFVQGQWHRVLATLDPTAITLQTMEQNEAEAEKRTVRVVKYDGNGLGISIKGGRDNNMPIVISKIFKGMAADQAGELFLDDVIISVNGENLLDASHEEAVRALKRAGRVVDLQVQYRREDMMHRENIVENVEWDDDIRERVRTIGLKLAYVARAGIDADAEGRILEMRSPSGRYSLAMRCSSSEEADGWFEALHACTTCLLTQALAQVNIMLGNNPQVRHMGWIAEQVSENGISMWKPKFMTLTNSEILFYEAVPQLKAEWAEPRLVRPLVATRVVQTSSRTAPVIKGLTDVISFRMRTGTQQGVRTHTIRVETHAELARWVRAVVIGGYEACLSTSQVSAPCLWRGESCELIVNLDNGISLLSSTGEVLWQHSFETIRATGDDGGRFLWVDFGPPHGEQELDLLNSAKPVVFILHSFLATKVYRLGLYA
Test: co-IP; epitope-tagged (FLAG, HA) proteins transiently transfected in HEK293 cells; immunoprecipitation and Western blot with FLAG or HA antibody, both directions

FLAG-tagged ISLO-1Δ4C(54-354), lacking the consensus type I PDZ interaction sequence (C. elegans) (domain or fragment)
binding: no binding

These are yes or no findings as the source states them, for the method shown. In cells and extracts the contact can be indirect. Where a sequence is shown, tags or fusion partners need not be part of it.
